Test results taken from article PMC6662699.
These are yes or no findings as the source states them, for the method shown. Binding seen in cells or lysates may run through a third protein. Some entries that bind do so weakly or less than the wild type. Sequences can lack the tags named with a protein.

Target: T1, Myc-Plk4 (UniProt O00444)
T1 sequence: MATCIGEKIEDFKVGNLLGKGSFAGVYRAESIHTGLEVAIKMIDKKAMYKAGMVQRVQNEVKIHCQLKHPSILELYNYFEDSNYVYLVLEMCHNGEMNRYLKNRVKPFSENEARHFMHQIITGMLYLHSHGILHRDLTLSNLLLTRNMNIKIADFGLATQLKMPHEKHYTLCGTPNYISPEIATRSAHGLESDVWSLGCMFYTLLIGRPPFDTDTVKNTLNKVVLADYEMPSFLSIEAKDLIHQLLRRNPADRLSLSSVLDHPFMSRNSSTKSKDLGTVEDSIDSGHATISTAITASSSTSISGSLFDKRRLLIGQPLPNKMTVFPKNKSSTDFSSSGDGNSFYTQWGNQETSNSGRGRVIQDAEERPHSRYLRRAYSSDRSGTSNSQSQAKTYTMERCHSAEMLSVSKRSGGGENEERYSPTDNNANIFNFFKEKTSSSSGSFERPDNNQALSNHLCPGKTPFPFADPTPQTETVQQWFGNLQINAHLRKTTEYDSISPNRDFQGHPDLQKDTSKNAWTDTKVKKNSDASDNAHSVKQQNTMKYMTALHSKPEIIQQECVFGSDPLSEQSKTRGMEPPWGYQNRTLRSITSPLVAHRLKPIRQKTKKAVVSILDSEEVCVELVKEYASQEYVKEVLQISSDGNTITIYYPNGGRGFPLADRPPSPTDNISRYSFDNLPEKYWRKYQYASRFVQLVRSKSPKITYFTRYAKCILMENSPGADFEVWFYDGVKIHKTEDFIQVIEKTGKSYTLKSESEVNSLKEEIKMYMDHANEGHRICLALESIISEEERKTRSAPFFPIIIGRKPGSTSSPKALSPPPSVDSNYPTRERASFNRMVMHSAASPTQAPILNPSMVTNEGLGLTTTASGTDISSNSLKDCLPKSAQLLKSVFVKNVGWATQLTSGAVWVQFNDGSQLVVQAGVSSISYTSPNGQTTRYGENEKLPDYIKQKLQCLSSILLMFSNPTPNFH
Test: co-IP; HEK293T cells co-expressing GFP-STIL with Myc-Plk4 and/or Cep131 (WT or 2A); GFP-magnetic beads; immunoblotting (Fig. 5a, b)

binding: binds
B1: HA-Cep131-WT (protein, UniProt Q9UPN4 1-1083)
chain: MKGTRAIGSVPERSPAGVDLSLTGLPPPVSRRPGSAATTKPIVRSVSVVTGSEQKRKVLEATGPGGSQAINNLRRSNSTTQVSQPRSGSPRPTEPTDFLMLFEGSPSGKKRPASLSTAPSEKGATWNVLDDQPRGFTLPSNARSSSALDSPAGPRRKECTVALAPNFTANNRSNKGAVGNCVTTMVHNRYTPSERAPPLKSSNQTAPSLNNIIKAATCEGSESSGFGKLPKNVSSATHSARNNTGGSTGLPRRKEVTEEEAERFIHQVNQATVTIQRWYRHQVQRRGAGAARLEHLLQAKREEQRQRSGEGTLLDLHQQKEAARRKAREEKARQARRAAIQELQQKRALRAQKASTAERGPPENPRETRVPGMRQPAQELSPTPGGTAHQALKANNTGGGLPAAGPGDRCLPTSDSSPEPQQPPEDRTQDVLAQDAAGDNLEMMAPSRGSAKSRGPLEELLHTLQLLEKEPDVLPRPRTHHRGRYAWASEVTTEDDASSLTADNLEKFGKLSAFPEPPEDGTLLSEAKLQSIMSFLDEMEKSGQDQLDSQQEGWVPEAGPGPLELGSEVSTSVMRLKLEVEEKKQAMLLLQRALAQQRDLTARRVKETEKALSRQLQRQREHYEATIQRHLAFIDQLIEDKKVLSEKCEAVVAELKQEDQRCTERVAQAQAQHELEIKKLKELMSATEKARREKWISEKTKKIKEVTVRGLEPEIQKLIARHKQEVRRLKSLHEAELLQSDERASQRCLRQAEELREQLEREKEALGQQERERARQRFQQHLEQEQWALQQQRQRLYSEVAEERERLGQQAARQRAELEELRQQLEESSSALTRALRAEFEKGREEQERRHQMELNTLKQQLELERQAWEAGRTRKEEAWLLNREQELREEIRKGRDKEIELVIHRLEADMALAKEESEKAAESRIKRLRDKYEAELSELEQSERKLQERCSELKGQLGEAEGENLRLQGLVRQKERALEDAQAVNEQLSSERSNLAQVIRQEFEDRLAASEEETRQAKAELATLQARQQLELEEVHRRVKTALARKEEAVSSLRTQHEAAVKRADHLEELLEQHRRPTPSTK
